A unit is not stated for every read-out.
What was measured:
[1] = ANS steady-state fluorescence (hydrophobicity probe); format: biochemical
From the text: It is well known that the exposure of the hydrophobic patches of CaM is essential for target protein recognition. Such hydrophobic exposure can be photometrically monitored by its interaction with extrinsic 1-anilinonaphthalene 8-sulfonate (ANS) and 2-p-toluidinyl-naphthalene-6-sulfonate (TNS) molecules. These two fluorophores have been widely used as a probe for measuring hydrophobicity. ANS is a fluorescent dye which emits very weak fluorescence in water due to its excited charge transfer (CT) state that is quenched easily by water molecules. […] ANS fluorescence increases dramatically in a hydrophobic environment or when the rotational motion of its phenylamino group is restricted. […] The fluorescence increased when Ca^2+ was included in the mixture.
ANS fluorescence was excited at 350 nm.
Absorption measurements were carried out using a UV-1800 double-beam spectrometer (Shimadzu, Kyoto, Japan). The fluorescence spectra were recorded on a FluoroMax-3P (Horiba Scientific) equipped with a temperature control unit. For intrinsic Trp fluorescence, the excitation wavelength of 295 nm was chosen. […] The samples containing ANS or dansyl-labeled proteins were excited at 350 and 370 nm, respectively. The slit widths of 2 and 5 nm were typically chosen for excitation and emission, respectively, to eliminate photobleaching.

[2] = ANS fluorescence lifetime (TCSPC); settings: for ANS lifetime τ 1, Component 1 / ANS lifetime τ 2, Component 2 / fractional intensity f 1, Component 1 / fractional intensity f 2, Component 2: 2 mM Ca^2+, 20°C, average; for Average lifetime <τ>: calculated from Eq. 2
CaM = experiment: Stern-Volmer quenching of CaM-bound ANS by acrylamide; settings: data not shown
From the text: Given that steady state fluorescence cannot differentiate the intensity contribution from individual ANS molecules, we utilized time-correlated single-photon counting (TCSPC) spectrometry to measure the ANS fluorescence decay. […] The data was best fit with a three-exponential-decay function. The shortest lifetime (τ3 = ~0.3 ns) was assigned to that of free ANS molecules, which was confirmed by using an ANS solution alone. Note that this lifetime reaches the detection limitation of our instrument and therefore, it cannot be determined precisely. […] The fitting also provided the fractional (or relative amplitude), fs, which weights the “amount” of the emitting species, and the normalized pre-exponential value, Bs, which provides the relative concentration of each species. […] In other words, the long lifetime component of ANS is one order less quenched by acrylamide.
For a quenching that is purely by collision, the steady-state and lifetime Stern-Volmer quenching equation can be expressed as4 <τo>/<τ>=1+KsvQandKsv=kqxτ0 where τ and τo are the lifetime in the presence and absence of the quencher, and kq is the quenching rate constant.

[3] = without Orai-CMBD, 5 μM protein, 50 μM ANS

| Compound | ANS fluorescence λmax ([1]; Ca^2+-bound protein, absence of Orai-CMBD, excitation […] nm) | B1 (normalized pre-exponential) ([2]; Ca^2+, [ANS]/[CaM] ratio 0.5) | B2 (normalized pre-exponential) ([2]; Ca^2+, [ANS]/[CaM] ratio 0.5) | f1 ([2]; Ca^2+, [ANS]/[CaM] ratio 0.5) | f2 ([2]; Ca^2+, [ANS]/[CaM] ratio 0.5) | ANS lifetime τ 1, Component 1 ([2]; with Orai-CMBD) | ANS lifetime τ 2, Component 2 ([2]; with Orai-CMBD) | fractional intensity f 1, Component 1 ([2]; with Orai-CMBD) | fractional intensity f 2, Component 2 ([2]; with Orai-CMBD) | Average lifetime <τ> ([2]; with Orai-CMBD) | ANS lifetime τ 1, Component 1 [2, 3] | ANS lifetime τ 2, Component 2 [2, 3] | fractional intensity f 1, Component 1 [2, 3] | fractional intensity f 2, Component 2 [2, 3] | Average lifetime <τ> ([2]; without Orai-CMBD) | KSV(τ2) (CaM; long lifetime of bound ANS) | KSV(τ1) (CaM; short lifetime of bound ANS) | ANS fluorescence λmax ([1]; ANS alone) | shortest lifetime τ3 (free ANS) ([2]; free ANS, at detection limit of instrument) |
| --- | --- | --- | --- | --- | --- | --- | --- | --- | --- | --- | --- | --- | --- | --- | --- | --- | --- | --- | --- |
| Calmodulin [CaM] | 480 nm | 0.33 | 0.16 | 0.47 | 0.49 | 6.8 ns | 16.9 ns | 0.20 | 0.66 | 13.1 ns | 6.4 ns | 13.1 ns | 0.44 | 0.53 | 9.0 ns | – | – | – | – |
| O=S(=O)(O)c1cccc2cccc(Nc3ccccc3)c12 [ANS, 1-anilinonaphthalene 8-sulfonate] | – | – | – | – | – | – | – | – | – | – | – | – | – | – | – | 0.25 ± 0.05 M⁻¹ | 1.4 ± 0.2 M⁻¹ | 520 nm | ~ 0.3 ns |
